From publication PMC11914695
Read-outs that look alike come from different tables or passages of the source. These are yes or no findings as the source states them, for the method shown. In cells and extracts the contact can be indirect. These calls come from enrichment with a bait or labelling near it, and not all partners need be listed. For some assays here: Where a sequence is shown, tags or fusion partners need not be part of it.

The chains behind the UniProt entries cited, without tags or fusion partners.
UniProt P54132: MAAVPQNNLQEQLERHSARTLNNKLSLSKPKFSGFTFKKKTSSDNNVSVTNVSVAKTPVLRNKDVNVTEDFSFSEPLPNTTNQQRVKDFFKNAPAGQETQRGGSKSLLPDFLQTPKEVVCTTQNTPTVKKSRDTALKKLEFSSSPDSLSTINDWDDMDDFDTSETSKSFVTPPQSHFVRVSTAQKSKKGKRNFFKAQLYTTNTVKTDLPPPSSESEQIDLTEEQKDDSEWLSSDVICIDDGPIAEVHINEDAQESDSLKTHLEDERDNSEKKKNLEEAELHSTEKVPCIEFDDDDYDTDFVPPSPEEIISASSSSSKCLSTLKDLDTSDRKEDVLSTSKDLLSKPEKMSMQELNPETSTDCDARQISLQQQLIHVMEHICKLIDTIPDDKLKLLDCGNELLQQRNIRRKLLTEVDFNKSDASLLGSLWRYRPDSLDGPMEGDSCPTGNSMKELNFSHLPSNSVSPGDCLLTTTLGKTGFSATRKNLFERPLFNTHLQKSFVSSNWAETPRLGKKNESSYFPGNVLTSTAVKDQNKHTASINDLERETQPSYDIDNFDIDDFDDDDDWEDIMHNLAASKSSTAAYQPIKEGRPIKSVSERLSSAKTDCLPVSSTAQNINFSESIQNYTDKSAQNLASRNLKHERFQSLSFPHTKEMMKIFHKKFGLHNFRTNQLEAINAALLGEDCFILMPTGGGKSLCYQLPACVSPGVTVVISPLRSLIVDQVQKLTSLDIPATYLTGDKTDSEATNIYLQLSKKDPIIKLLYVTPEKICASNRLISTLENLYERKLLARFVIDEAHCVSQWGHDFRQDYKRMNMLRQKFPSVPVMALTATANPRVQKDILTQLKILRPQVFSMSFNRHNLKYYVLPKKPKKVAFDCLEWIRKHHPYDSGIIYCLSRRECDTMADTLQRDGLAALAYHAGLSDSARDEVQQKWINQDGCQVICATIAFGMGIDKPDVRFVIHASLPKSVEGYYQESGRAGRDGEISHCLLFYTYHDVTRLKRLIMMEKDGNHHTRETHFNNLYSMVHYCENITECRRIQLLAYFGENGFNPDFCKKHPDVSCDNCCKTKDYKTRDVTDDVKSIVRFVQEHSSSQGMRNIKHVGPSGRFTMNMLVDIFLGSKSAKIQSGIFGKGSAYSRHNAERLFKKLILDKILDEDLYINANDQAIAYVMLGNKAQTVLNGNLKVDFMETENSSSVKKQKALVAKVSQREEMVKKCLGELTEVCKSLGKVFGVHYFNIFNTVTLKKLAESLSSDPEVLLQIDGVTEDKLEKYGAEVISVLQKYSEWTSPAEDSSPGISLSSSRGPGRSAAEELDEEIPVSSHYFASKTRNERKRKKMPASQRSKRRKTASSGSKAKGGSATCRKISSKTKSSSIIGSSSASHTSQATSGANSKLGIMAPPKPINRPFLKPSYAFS
UniProt Q96GD4: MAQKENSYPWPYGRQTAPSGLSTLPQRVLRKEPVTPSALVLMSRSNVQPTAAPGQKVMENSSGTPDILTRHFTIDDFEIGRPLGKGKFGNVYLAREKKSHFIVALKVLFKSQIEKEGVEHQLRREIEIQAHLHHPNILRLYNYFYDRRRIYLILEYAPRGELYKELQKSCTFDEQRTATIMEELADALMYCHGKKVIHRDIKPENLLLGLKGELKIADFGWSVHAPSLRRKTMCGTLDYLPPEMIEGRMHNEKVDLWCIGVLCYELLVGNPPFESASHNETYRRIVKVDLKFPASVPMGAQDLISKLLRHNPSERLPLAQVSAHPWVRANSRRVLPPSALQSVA
UniProt Q02224: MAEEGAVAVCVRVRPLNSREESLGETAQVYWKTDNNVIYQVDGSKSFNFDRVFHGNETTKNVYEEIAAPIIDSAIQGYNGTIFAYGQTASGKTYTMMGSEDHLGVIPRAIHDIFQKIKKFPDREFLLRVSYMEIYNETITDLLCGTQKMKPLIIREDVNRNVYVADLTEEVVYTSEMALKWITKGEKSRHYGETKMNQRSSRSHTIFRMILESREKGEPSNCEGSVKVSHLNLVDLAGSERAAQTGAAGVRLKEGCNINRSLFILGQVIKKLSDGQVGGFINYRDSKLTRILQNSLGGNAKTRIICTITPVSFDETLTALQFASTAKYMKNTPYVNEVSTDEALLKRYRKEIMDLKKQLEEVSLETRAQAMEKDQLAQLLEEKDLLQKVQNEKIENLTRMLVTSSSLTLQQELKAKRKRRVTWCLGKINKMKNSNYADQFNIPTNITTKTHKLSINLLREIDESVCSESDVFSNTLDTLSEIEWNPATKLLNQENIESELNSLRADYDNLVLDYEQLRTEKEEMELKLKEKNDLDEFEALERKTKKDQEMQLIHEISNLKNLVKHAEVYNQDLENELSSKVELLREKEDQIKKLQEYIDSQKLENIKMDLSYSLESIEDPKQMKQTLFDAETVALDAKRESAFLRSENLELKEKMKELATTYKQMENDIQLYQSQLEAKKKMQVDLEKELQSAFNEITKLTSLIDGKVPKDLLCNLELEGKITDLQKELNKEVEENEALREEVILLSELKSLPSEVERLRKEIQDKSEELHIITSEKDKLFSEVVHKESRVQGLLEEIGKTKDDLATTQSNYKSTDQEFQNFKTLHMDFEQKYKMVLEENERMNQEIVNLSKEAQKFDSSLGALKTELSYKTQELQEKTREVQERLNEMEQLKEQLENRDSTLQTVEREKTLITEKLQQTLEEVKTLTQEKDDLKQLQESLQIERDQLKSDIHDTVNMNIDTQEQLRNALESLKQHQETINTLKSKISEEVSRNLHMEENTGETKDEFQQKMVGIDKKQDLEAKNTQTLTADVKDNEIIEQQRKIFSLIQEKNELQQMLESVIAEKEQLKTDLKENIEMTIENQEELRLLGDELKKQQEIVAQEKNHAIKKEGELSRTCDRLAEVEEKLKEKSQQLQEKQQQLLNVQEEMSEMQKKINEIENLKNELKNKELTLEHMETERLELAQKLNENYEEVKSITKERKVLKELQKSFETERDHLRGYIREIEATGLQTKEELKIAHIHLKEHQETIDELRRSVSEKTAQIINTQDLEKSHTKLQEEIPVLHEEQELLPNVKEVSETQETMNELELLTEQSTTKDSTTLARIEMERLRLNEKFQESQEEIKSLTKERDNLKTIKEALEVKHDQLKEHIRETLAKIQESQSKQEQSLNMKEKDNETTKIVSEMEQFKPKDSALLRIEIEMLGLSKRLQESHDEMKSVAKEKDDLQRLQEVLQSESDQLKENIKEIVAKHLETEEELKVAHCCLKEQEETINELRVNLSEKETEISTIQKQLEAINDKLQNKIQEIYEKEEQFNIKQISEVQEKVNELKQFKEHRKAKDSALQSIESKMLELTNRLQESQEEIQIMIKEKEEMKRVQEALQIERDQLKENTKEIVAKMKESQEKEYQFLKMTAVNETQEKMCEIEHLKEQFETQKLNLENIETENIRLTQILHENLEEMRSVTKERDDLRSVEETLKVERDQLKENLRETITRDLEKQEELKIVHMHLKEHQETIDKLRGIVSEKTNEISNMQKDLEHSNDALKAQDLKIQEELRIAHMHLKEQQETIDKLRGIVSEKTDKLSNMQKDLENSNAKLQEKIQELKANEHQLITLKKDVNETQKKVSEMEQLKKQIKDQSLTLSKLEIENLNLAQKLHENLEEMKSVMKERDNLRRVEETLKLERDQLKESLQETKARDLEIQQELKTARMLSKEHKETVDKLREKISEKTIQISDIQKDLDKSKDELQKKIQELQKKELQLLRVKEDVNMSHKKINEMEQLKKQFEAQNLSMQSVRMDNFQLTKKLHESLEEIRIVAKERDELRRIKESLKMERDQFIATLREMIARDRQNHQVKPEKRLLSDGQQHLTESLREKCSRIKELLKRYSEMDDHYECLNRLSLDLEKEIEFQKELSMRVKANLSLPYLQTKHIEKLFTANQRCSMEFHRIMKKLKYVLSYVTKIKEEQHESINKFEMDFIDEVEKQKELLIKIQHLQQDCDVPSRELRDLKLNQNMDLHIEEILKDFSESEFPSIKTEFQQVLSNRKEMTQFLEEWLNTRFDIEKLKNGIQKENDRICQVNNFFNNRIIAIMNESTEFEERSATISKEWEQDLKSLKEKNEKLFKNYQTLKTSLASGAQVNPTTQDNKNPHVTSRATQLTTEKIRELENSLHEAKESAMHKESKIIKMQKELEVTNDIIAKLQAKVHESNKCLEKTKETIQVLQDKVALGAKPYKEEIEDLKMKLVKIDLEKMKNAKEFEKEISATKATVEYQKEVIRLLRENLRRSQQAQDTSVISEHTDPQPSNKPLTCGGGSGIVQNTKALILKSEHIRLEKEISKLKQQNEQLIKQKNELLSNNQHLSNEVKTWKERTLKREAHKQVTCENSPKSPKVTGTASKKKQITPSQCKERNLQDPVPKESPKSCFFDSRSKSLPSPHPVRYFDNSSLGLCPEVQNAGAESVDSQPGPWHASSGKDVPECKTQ
UniProt Q9NQS7: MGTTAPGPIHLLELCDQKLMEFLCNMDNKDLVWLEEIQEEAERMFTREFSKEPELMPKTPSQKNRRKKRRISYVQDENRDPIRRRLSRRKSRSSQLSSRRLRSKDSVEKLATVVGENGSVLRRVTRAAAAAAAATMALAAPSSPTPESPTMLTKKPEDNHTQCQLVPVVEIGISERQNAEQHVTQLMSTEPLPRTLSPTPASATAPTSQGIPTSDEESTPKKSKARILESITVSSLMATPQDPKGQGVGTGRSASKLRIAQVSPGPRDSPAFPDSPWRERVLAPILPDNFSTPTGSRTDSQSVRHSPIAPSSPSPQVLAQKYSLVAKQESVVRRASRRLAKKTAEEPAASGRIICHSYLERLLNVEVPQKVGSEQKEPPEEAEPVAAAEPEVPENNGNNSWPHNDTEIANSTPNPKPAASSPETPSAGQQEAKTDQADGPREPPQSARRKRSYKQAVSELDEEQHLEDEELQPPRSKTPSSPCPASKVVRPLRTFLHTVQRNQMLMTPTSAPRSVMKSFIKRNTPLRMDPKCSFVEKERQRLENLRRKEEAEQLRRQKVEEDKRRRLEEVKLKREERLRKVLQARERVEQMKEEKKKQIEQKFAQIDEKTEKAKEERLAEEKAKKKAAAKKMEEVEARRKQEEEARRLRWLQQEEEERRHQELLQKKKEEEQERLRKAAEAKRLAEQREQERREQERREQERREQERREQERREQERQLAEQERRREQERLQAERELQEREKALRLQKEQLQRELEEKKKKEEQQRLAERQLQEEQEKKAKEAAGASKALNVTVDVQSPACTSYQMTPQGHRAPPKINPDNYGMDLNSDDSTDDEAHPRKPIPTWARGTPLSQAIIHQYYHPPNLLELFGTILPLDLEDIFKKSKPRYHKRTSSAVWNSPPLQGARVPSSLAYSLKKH

Experiments:
Assay in all cases: proximity labelling; FLAG-APEX2-TRF1 in HeLa, G1/S thymidine block and release into 150 ng/mL nocodazole for 12, 14 or 16 h; APEX2 activated 60 s with biotin-phenol and H2O2; streptavidin pull-down, LC-MS/MS; compared with FLAG-APEX2 at the same times
FLAG-APEX2-TRF1 (human) [1] = biological target: FLAG-APEX2-TRF1 (human) (UniProt P54274)
FLAG-APEX2-TRF1 (human) [2] = biological target: FLAG-APEX2-TRF1 (human) (UniProt P54274); remark: listed apart in the source
[3] = biological target: T1, FLAG-APEX2-TRF1 (human), P54274; details: remark: other sources report otherwise
T1 chain: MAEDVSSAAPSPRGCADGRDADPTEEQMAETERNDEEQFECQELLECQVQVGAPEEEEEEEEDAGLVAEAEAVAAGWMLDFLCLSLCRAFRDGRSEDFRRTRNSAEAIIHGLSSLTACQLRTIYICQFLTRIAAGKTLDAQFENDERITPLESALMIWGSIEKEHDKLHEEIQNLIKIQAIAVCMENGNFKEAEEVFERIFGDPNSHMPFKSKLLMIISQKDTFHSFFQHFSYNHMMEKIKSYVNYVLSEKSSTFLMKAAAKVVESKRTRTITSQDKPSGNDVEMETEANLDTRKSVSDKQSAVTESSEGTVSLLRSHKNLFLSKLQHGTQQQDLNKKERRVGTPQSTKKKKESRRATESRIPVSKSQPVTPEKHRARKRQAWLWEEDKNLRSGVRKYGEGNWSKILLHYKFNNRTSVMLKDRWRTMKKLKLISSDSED

BLM (from UniProt P54132 1-1417) (enzyme)
binding (FLAG-APEX2-TRF1 (human) [1]): binds

CASC5 (from UniProt Q8NG31 1-2342)
binding (FLAG-APEX2-TRF1 (human) [1]): binds

Aurora Kinase B (from UniProt Q96GD4 1-344) (enzyme)
binding (FLAG-APEX2-TRF1 (human) [1]): binds

CENPE (from UniProt Q02224 1-2701)
binding (FLAG-APEX2-TRF1 (human) [1]): binds

INCENP (from UniProt Q9NQS7 1-918)
binding (FLAG-APEX2-TRF1 (human) [1]): binds

B1: TIN2 (protein, UniProt Q9BSI4 1-451)
chain: MATPLVAGPAALRFAAAASWQVVRGRCVEHFPRVLEFLRSLRAVAPGLVRYRHHERLCMGLKAKVVVELILQGRPWAQVLKALNHHFPESGPIVRDPKATKQDLRKILEAQETFYQQVKQLSEAPVDLASKLQELEQEYGEPFLAAMEKLLFEYLCQLEKALPTPQAQQLQDVLSWMQPGVSITSSLAWRQYGVDMGWLLPECSVTDSVNLAEPMEQNPPQQQRLALHNPLPKAKPGTHLPQGPSSRTHPEPLAGRHFNLAPLGRRRVQSQWASTRGGHKERPTVMLFPFRNLGSPTQVISKPESKEEHAIYTADLAMGTRAASTGKSKSPCQTLGGRALKENPVDLPATEQKENCLDCYMDPLRLSLLPPRARKPVCPPSLCSSVITIGDLVLDSDEEENGQGEGKESLENYQKTKFDTLIPTLCEYLPPSGHGAIPVSSCDCRDSSRPL
binding (FLAG-APEX2-TRF1 (human) [2]): binds

B2: Borealin (protein, UniProt Q53HL2 1-280)
chain: MAPRKGSSRVAKTNSLRRRKLASFLKDFDREVEIRIKQIESDRQNLLKEVDNLYNIEILRLPKALREMNWLDYFALGGNKQALEEAATADLDITEINKLTAEAIQTPLKSAKTRKVIQVDEMIVEEEEEEENERKNLQTARVKRCPPSKKRTQSIQGKGKGKRSSRANTVTPAVGRLEVSMVKPTPGLTPRFDSRVFKTPGLRTPAAGERIYNISGNGSPLADSKEIFLTVPVGGGESLRLLASDLQRHSIAQLDPEALGNIKKLSNRLAQICSSIRTHK
binding (FLAG-APEX2-TRF1 (human) [2]): binds

B3: TRF2 (endogenous), Q15554 1-542 (protein)
chain: MAAGAGTAGPASGPGVVRDPAASQPRKRPGREGGEGARRSDTMAGGGGSSDGSGRAAGRRASRSSGRARRGRHEPGLGGPAERGAGEARLEEAVNRWVLKFYFHEALRAFRGSRYGDFRQIRDIMQALLVRPLGKEHTVSRLLRVMQCLSRIEEGENLDCSFDMEAELTPLESAINVLEMIKTEFTLTEAVVESSRKLVKEAAVIICIKNKEFEKASKILKKHMSKDPTTQKLRNDLLNIIREKNLAHPVIQNFSYETFQQKMLRFLESHLDDAEPYLLTMAKKALKSESAASSTGKEDKQPAPGPVEKPPREPARQLRNPPTTIGMMTLKAAFKTLSGAQDSEAAFAKLDQKDLVLPTQALPASPALKNKRPRKDENESSAPADGEGGSELQPKNKRMTISRLVLEEDSQSTEPSAGLNSSQEAASAPPSKPTVLNQPLPGEKNPKVPKGKWNSSNGVEEKETWVEEDELFQVQAAPDEDSTTNITKKQKWTVEESEWVKAGVQKYGEGNWAAISKNYPFVNRTAVMIKDRWRTMKRLGMN
binding [3]: binds

B4: SPDL1 (protein, UniProt Q96EA4 1-605)
chain: MEADIITNLRCRLKEAEEERLKAAQYGLQLVESQNELQNQLDKCRNEMMTMTESYEQEKYTLQREVELKSRMLESLSCECEAIKQQQKMHLEKLEEQLSRSHGQEVNELKTKIEKLKVELDEARLSEKQLKHQVDHQKELLSCKSEELRVMSERVQESMSSEMLALQIELTEMESMKTTLKEEVNELQYRQEQLELLITNLMRQVDRLKEEKEEREKEAVSYYNALEKARVANQDLQVQLDQALQQALDPNSKGNSLFAEVEDRRAAMERQLISMKVKYQSLKKQNVFNREQMQRMKLQIATLLQMKGSQTEFEQQERLLAMLEQKNGEIKHLLGEIRNLEKFKNLYDSMESKPSVDSGTLEDNTYYTDLLQMKLDNLNKEIESTKGELSIQRMKALFESQRALDIERKLFANERCLQLSESENMKLRAKLDELKLKYEPEETVEVPVLKKRREVLPVDITTAKDACVNNSALGGEVYRLPPQKEETQSCPNSLEDNNLQLEKSVSIYTPVVSLSPHKNLPVDMQLKKEKKCVKLIGVPADAEALSERSGNTPNSPRLAAESKLQTEVKEGKETSSKLEKETCKKLHPILYVSSKSTPETQCPQQ
binding (FLAG-APEX2-TRF1 (human) [2]): binds

B5: DSN1 (protein, UniProt Q9H410 1-356)
chain: MTSVTRSEIIDEKGPVMSKTHDHQLESSLSPVEVFAKTSASLEMNQGVSEERIHLGSSPKKGGNCDLSHQERLQSKSLHLSPQEQSASYQDRRQSWRRASMKETNRRKSLHPIHQGITELSRSISVDLAESKRLGCLLLSSFQFSIQKLEPFLRDTKGFSLESFRAKASSLSEELKHFADGLETDGTLQKCFEDSNGKASDFSLEASVAEMKEYITKFSLERQTWDQLLLHYQQEAKEILSRGSTEAKITEVKVEPMTYLGSSQNEVLNTKPDYQKILQNQSKVFDCMELVMDELQGSVKQLQAFMDESTQCFQKVSVQLGKRSMQQLDPSPARKLLKLQLQNPPAIHGSGSGSCQ
binding (FLAG-APEX2-TRF1 (human) [2]): binds

B6: SGOL2 (protein, UniProt Q562F6 1-1265)
chain: MECPVMETGSLFTSGIKRHLKDKRISKTTKLNVSLASKIKTKILNNSSIFKISLKHNNRALAQALSREKENSRRITTEKMLLQKEVEKLNFENTFLRLKLNNLNKKLIDIEALMNNNLITAIEMSSLSEFHQSSFLLSASKKKRISKQCKLMRLPFARVPLTSNDDEDEDKEKMQCDNNIKSKTLPDIPSSGSTTQPLSTQDNSEVLFLKENNQNVYGLDDSEHISSIVDVPPRESHSHSDQSSKTSLMSEMRNAQSIGRRWEKPSPSNVTERKKRGSSWESNNLSADTPCATVLDKQHISSPELNCNNEINGHTNETNTEMQRNKQDLPGLSSESAREPNAECMNQIEDNDDFQLQKTVYDADMDLTASEVSKIVTVSTGIKKKSNKKTNEHGMKTFRKVKDSSSEKKRERSKRQFKNSSDVDIGEKIENRTERSDVLDGKRGAEDPGFIFNNEQLAQMNEQLAQVNELKKMTLQTGFEQGDRENVLCNKKEKRITNEQEETYSLSQSSGKFHQESKFDKGQNSLTCNKSKASRQTFVIHKLEKDNLLPNQKDKVTIYENLDVTNEFHTANLSTKDNGNLCDYGTHNILDLKKYVTDIQPSEQNESNINKLRKKVNRKTEIISGMNHMYEDNDKDVVHGLKKGNFFFKTQEDKEPISENIEVSKELQIPALSTRDNENQCDYRTQNVLGLQKQITNMYPVQQNESKVNKKLRQKVNRKTEIISEVNHLDNDKSIEYTVKSHSLFLTQKDKEIIPGNLEDPSEFETPALSTKDSGNLYDSEIQNVLGVKHGHDMQPACQNDSKIGKKPRLNVCQKSEIIPETNQIYENDNKGVHDLEKDNFFSLTPKDKETISENLQVTNEFQTVDLLIKDNGNLCDYDTQNILELKKYVTDRKSAEQNESKINKLRNKVNWKTEIISEMNQIYEDNDKDAHVQESYTKDLDFKVNKSKQKLECQDIINKHYMEVNSNEKESCDQILDSYKVVKKRKKESSCKAKNILTKAKNKLASQLTESSQTSISLESDLKHITSEADSDPGNPVELCKTQKQSTTTLNKKDLPFVEEIKEGECQVKKVNKMTSKSKKRKTSIDPSPESHEVMERILDSVQGKSTVSEQADKENNLENEKMVKNKPDFYTKAFRSLSEIHSPNIQDSSFDSVREGLVPLSVSSGKNVIIKENFALECSPAFQVSDDEHEKMNKMKFKVNRRTQKSGIGDRPLQDLSNTSFVSNNTAESENKSEDLSSERTSRRRRCTPFYFKEPSLRDKMRR
binding (FLAG-APEX2-TRF1 (human) [2]): binds
